The record followed here is paper PMC11374810.

Amino acid sequences for entries named in this document (tags omitted).
UniProt P51150: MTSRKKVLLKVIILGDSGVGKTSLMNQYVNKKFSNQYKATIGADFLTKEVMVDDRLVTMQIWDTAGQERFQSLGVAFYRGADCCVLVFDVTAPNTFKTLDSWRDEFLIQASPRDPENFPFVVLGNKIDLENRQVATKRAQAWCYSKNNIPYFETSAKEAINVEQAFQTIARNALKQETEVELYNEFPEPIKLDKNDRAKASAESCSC

For this assay, the target named is T1, GFP-VPS4a^WT (UniProt Q9UN37).
T1 sequence: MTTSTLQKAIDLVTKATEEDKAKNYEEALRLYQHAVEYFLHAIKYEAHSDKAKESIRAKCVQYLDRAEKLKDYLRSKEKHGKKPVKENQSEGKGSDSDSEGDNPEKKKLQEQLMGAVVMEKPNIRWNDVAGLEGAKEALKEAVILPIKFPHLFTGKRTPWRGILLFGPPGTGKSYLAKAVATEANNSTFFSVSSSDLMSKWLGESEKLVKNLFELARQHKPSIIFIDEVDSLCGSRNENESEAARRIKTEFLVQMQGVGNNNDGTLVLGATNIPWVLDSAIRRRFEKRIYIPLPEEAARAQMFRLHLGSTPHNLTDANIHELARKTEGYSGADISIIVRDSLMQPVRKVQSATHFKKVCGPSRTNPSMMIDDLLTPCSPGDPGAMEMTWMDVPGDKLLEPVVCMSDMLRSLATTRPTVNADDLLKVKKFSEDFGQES
The experiment in a line: affinity purification with mass spectrometry; GFP-Trap agarose pulldown of GFP-VPS4a from lysates of sgControl or sgRNAseK cells cultured in AA-free DMEM for 3 h; PD buffer (150 mM NaCl, 20 mM Tris-HCl pH 7.5, 5 mM EDTA, 1% Triton-X), overnight at 4 °C; MS.

No constants are given. Whether binding was seen depends on the method and setting. In cells and extracts the contact can be indirect. These calls come from enrichment with a bait or labelling near it, and not all partners need be listed. Sequences can lack the tags named with a protein.

For the substance RAB7 (from UniProt P51150 1-207), the binding entry was “binds”.

For Syntaxin17 (STX17), the binding entry is “binds”.
